Results reported in patent publication US12661410B2, “Compounds for targeted degradation of RET” (C4 Therapeutics, Inc., priority 2020, dated 2026).
The match of structure and compound is tentative.

Sequences of proteins named here, by UniProt entry; tags and fusion partners are left off. A change or cut given only in a name is not applied to a line headed by its entry. Residues count along the entry.
UniProt P07949, 658-1114 limits assumed: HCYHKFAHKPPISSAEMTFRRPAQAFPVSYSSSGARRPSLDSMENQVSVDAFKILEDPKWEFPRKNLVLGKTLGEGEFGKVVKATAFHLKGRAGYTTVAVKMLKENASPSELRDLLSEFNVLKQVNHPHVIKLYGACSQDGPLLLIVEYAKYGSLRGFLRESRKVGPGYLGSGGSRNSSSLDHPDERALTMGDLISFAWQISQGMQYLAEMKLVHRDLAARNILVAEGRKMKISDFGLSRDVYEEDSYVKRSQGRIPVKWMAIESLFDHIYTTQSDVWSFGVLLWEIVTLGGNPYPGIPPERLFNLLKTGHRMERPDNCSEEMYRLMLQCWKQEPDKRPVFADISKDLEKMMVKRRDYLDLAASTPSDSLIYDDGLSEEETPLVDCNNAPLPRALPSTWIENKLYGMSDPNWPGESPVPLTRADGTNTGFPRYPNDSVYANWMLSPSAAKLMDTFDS
UniProt P07949, 658-1114 G810R limits assumed: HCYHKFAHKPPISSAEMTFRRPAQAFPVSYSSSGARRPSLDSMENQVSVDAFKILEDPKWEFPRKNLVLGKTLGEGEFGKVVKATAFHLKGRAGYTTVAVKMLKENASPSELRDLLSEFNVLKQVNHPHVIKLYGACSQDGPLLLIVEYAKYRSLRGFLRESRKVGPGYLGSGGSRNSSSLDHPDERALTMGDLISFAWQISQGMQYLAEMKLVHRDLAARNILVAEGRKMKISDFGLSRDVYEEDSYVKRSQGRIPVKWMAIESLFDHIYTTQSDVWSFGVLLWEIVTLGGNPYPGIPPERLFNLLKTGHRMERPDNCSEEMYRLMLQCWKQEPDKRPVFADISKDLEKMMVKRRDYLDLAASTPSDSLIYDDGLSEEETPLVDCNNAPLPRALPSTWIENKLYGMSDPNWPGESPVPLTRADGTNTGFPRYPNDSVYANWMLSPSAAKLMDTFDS

Assays:
RET(KD: 658-1114 G810R) = RET(KD: 658-1114 G810R) (Homo sapiens, UniProt P07949, G810R); assay: HiBiT-Degradation, RET G810R degradation assay (Nano-Glo HiBiT Lytic), 293T.165 cells; conditions: for 293T.165 RET(KD: 658-1114 G810R) 6.0 hours (Emax): % remaining protein; for 293T.165 RET(KD: 658-1114 G810R) 6.0 hours (DC50) [nM]: half-maximal degradation concentration
Description: (§1) Dulbecco's modified Eagle medium (DMEM) no-phenol red media and fetal bovine serum (FBS) were purchased from Gibco (Grand Island, NY, USA). Cell lines ectopically expressing wild-type or G810R RET kinase domain fused with a HiBiT tag were generated in-house (293T. 144 and 293T. 165, respectively). Cell culture flasks and 384-well microplates were acquired from VWR (Radnor, PA, USA). The Nano-Glo® HiBiT Lytic Assay System was purchased from Promega (Madison, WI, USA).
(§2) RET wild-type (WT) and G810R degradation were assessed using the Nano-Glo® HiBiT Lytic assay (Promega, Medison, WI, USA). To determine the effect of degraders on protein levels, cells were plated in 384-well plates and treated with compounds of interest in duplicates for 6 hours using an 11-point half-log dilution series, with the highest dose set at 10 μM. Cell lysis and addition of the Nano-Glo® HiBiT Lytic Assay reagents was then performed. Luminescence signal was measured using an EnVision™ Multimode plate reader (Perkin Elmer, Santa Clara, CA, USA). The half-maximal degradation concentration (DC50) and % remaining protein (Emax) was then derived from the dose-response curves.

RET (658-1114) = RET (658-1114) (Homo sapiens, UniProt P07949); assay: HiBiT-Degradation, RET wild-type degradation assay (Nano-Glo HiBiT Lytic), 293T.144 cells; conditions: for 293T.144 RET (658-1114) 6.0 hours (Emax): % remaining protein; for DC50: read-out: 293T.144 RET (658-1114) 6.0 hours (DC50), half-maximal degradation concentration
Description: as §1, §2

Row | Structure (SMILES) | 293T.165 RET(KD: 658-1114 G810R) 6.0 hours (IP) [nM] (RET(KD: 658-1114 G810R)) | 293T.165 RET(KD: 658-1114 G810R) 6.0 hours (Emax) (RET(KD: 658-1114 G810R)) | 293T.165 RET(KD: 658-1114 G810R) 6.0 hours (DC50) [nM] (RET(KD: 658-1114 G810R)) | 293T.144 RET (658-1114) 6.0 hours (IP) [nM] (RET (658-1114)) | 293T.144 RET (658-1114) 6.0 hours (Emax) (RET (658-1114)) | DC50 (RET (658-1114)) [nM]
1 | CCC1(C(=O)NC2CCOCC2)CCN(c2ccc(-c3nc(-c4cnn(C5CCN(C(=O)CN6CCC(c7ccc(NC8CCC(=O)NC8=O)cc7F)CC6)CC5)c4)cn4ncc(C#N)c34)cn2)CC1 (stereo not drawn) | ++++ (<50 nM = ++++) | ++++ (<30% = ++++) | ++++ (<50 nM = ++++) | ++++ (<50 nM = ++++) | ++++ (<30% = ++++) | < 50
2 | CCC1(C(=O)NC(C)C)CCN(c2ccc(-c3nc(-c4cnn(C5CCN(C(=O)CN6CCC(c7ccc8c(c7)CCN8C7CCC(=O)NC7=O)CC6)CC5)c4)cn4ncc(C#N)c34)cn2)CC1 (stereo not drawn) | ++++ (<50 nM = ++++) | +++ (<50% = +++) | +++ (<100 nM = +++) | ++++ (<50 nM = ++++) | ++++ (<30% = ++++) | < 50
